Results on 1 sequence are retold here after paper PMC3985653, “A bacteriophage transcription regulator inhibits bacterial transcription initiation by σ-factor displacement”.

The data set has as its system wild-type core RNA polymerase (WTE) + sigma70. The data set can be described thus: EMSA. To be noted: no P7, negative control RNAp; Transcription/KMnO4 reactions: 100 nM Esigma70, 20 nM promoter, P7:Esigma70 4:1 pre-incubated; KMnO4 1 mM, 37 C, 30 s; EMSA on 4.5% native PAGE (Fig. 4D at 4 C); recombinant protein; label: 32P in Fig. 4C,D, unlabelled in Fig. 4A,B. (Mobility shift assays separate free from complexed probe on a gel.)

Construct, isoform or probe ends are uncertain for at least one entry. At least one verdict rests on a figure or table, not on a statement of the authors.

In the case of “GTTAGCTCACTCATTAGGCACCCCAGGCTTTACACTTTATGCTTCCGGCTCGTATAATGTGTGGAATTGTGAGCGGATAACAATTTCACACAGGAAACAG (double strand) [lacUV5 promoter [-64 to +36]]”, the binding result is recorded as “binds”.
